# Source: patent US4358439A, “Cyclooctapeptides” (Ciba-Geigy Corporation, priority 1979, dated 1982)
# Part of at least one peptide drawing is inferred or uncertain, most often the ends. Where a SMILES comes first, the peptide text is derived from it. [ ]: non-standard residue; d: D form. GABA = NCCCC(=O)O
# Test system: isolated, perfused rat pancreas
# Assay: release of insulin and glucagon in the isolated, perfused rat pancreas stimulated with arginine
# Settings: relative to somatostatin
smiles,measurement,value
"C[C@@H](O)[C@@H]1NC(=O)[C@H](CCCCN)NC(=O)[C@@H](Cc2c[nH]c3ccccc23)NC(=O)[C@H](Cc2ccccc2)NC(=O)[C@H](Cc2ccccc2)NC(=O)CCCNC(=O)[C@H](Cc2ccccc2)NC(=O)[C@H](Cc2ccccc2)NC1=O [[D-Trp^8,Phe^12,Gaba^13]-cyclosomatostatin(6-13)octapeptide] (cyclo(FF[GABA]FF[dW]KT))",inhibitory effect on glucagon secretion as compared with somatostatin,one to two times
same,inhibitory effect on insulin secretion as compared with somatostatin,one to two times
